{
  "source": "paper PMC11199648",
  "key": {"[1]": {"biological_target": "HTLV-1 Tax oncoprotein, endogenous in HTLV-1-transformed T-cell lines (HTLV-1 (endogenous in C8166, MT-2, HUT-102)) (UniProt P03409)", "test": "co-IP; membrane fractions from C8166 and MT-2 cells; control IgG, anti-Tax or anti-KDR immunoprecipitates; endogenous proteins"}, "[2]": {"biological_target": "hKDR (GFP-KDR), kinase insert domain receptor fused to GFP (human) (UniProt P35968)", "test": "co-IP; lysates of 293T cells transfected with Tax and KDR-GFP plasmids; anti-KDR and reciprocal anti-Tax immunoprecipitates; Dynabeads Protein G"}, "[3]": {"biological_target": "kinase insert domain receptor (KDR), endogenous in HTLV-1-transformed T-cell lines (human (endogenous in C8166, MT-2, HUT-102)) (UniProt P35968)", "test": "co-IP; membrane fractions from C8166 and MT-2 cells; control IgG, anti-Tax or anti-KDR immunoprecipitates; endogenous proteins"}, "[4]": {"biological_target": "NEMO, endogenous in MT-2 cells (human (endogenous in MT-2)) (UniProt Q9Y6K9)", "test": "co-IP; lysates from MT-2 cells treated with SU 1498 and leupeptin (20 uM) for 24 h; control IgG or anti-NEMO immunoprecipitates; endogenous proteins"}, "[5]": {"biological_target": "kinase insert domain receptor (KDR), endogenous in HTLV-1-transformed T-cell lines (human (endogenous in C8166, MT-2, HUT-102)) (UniProt P35968)", "test": "proximity ligation; in situ PLA (Duolink In Situ Red, mouse/rabbit) on fixed, permeabilized C8166 and HUT-102 cells with anti-KDR (rabbit) and anti-Tax (mouse)"}, "[6]": {"biological_target": "HTLV-1 Tax oncoprotein, expressed from the pCMV4-Tax plasmid (HTLV-1) (UniProt P03409)", "test": "co-IP; lysates of 293T cells transfected with Tax and KDR-GFP plasmids; anti-KDR and reciprocal anti-Tax immunoprecipitates; Dynabeads Protein G"}},
  "note": "No constants are given. Whether binding was seen depends on the method and setting. In cells and extracts the contact can be indirect. Some binding calls cover weakened binding; strength is not graded here.",
  "data": [
    {"substance": "kinase insert domain receptor (KDR), endogenous in HTLV-1-transformed T-cell lines (from UniProt P35968 20-1356)", "values": [
      {"measurement": "binding", "setting": "[1]", "value": "binds"}
    ]},
    {"substance": "HTLV-1 Tax oncoprotein, expressed from the pCMV4-Tax plasmid (from UniProt P03409 1-353)", "values": [
      {"measurement": "binding", "setting": "[2]", "value": "binds"}
    ]},
    {"substance": "HTLV-1 Tax oncoprotein, endogenous in HTLV-1-transformed T-cell lines (from UniProt P03409 1-353)", "values": [
      {"measurement": "binding", "setting": "[3]", "value": "binds"},
      {"measurement": "binding", "setting": "[4]", "value": "binds"},
      {"measurement": "binding", "setting": "[5]", "value": "binds"}
    ]},
    {"substance": "hKDR (GFP-KDR), kinase insert domain receptor fused to GFP (from UniProt P35968 20-1356)", "values": [
      {"measurement": "binding", "setting": "[6]", "value": "binds"}
    ]}
  ]
}
